Reference: patent publication US20220356147A1, “COMPOUNDS AND METHODS FOR POTENTIATING COLISTIN ACTIVITY” (University of Notre Dame du Lac, priority 2019, published 2022)
Some entries share one result that the patent states for a list of compounds.

system: AB4106 and KPB9; assay: Initial screen for colistin resistance suppression, statements in words for both strains; format: cell-based, A. baumannii and K. pneumoniae; details: compound at 5 μM
Method: Broth microdilution method for measurement of colistin potentiation: Bacteria were cultured for 4 to 6 hours in CAMHB and diluted to 1.04×10^6 CFU/mL for AB 4106 and 1.96×10^6 CFU/mL for KP B9 in fresh CAMHB. To aliquots (4 mL) was added compound from stock solutions in DMSO. One aliquot was not dosed to allow measurement of the colistin MIC in the absence of compound. A 1 mL aliquot of each sample was dosed with colistin, and from this 200 μL was dispensed into the first row of a 96-well microtiter plate in which all but the final row of subsequent wells was prefilled with 100 μL of the corresponding compound dosed bacterial suspension The final row was filled with media to act as a sterility control and blank. Row one wells were mixed 6-7 times, then, 100 μL was withdrawn and transferred to row two. Row two wells were mixed 6-7 times followed by a 100 μL transfer from row two to row three. This procedure was used to serially dilute the rest of the rows of the microtiter plate, excluding the last prefilled row, which was used to measure growth in the presence of compound alone. Plates were then sealed with GLAD
Press'n Seal and incubated under stationary conditions at 37° C. […] MIC values were determined as the minimum concentration required to achieve 90% growth inhibition compared to growth in untreated wells.

Structure (SMILES)	Colistin potentiation activity in words, compared to IMD-0354
O=C(Nc1cc(F)cc(F)c1)c1ccc(C(F)(F)F)cc1O [Compound 54, N-(3,5-difluorophenyl)-2-hydroxy-4-(trifluoromethyl)benzamide]	equally active to IMD-0354
O=C(Nc1cc(Cl)cc(Cl)c1)c1ccc(C(F)(F)F)cc1O [Compound 55, N-(3,5-dichlorophenyl)-2-hydroxy-4-(trifluoromethyl)benzamide]	equally active to IMD-0354
O=C(Nc1cc(Br)cc(Br)c1)c1ccc(C(F)(F)F)cc1O [Compound 56]	equally active to IMD-0354
Cc1cc(C)cc(NC(=O)c2ccc(C(F)(F)F)cc2O)c1 [Compound 57, N-(3,5-dimethylphenyl)-2-hydroxy-4-(trifluoromethyl)benzamide]	less active
Cc1cc(C)cc(NC(=O)c2cccc(Cl)c2O)c1 [Compound 58, 3-chloro-N-(3,5-dimethylphenyl)-2-hydroxybenzamide]	less active
Cc1cc(C)cc(NC(=O)c2cc(Cl)cc(Cl)c2O)c1 [Compound 59, 3,5-dichloro-N-(3,5-dimethylphenyl)-2-hydroxybenzamide]	less active
O=C(Nc1cc(Cl)cc(Cl)c1)c1cc(Cl)cc(Cl)c1O [Compound 62]	equally active to IMD-0354
